PubChem BioAssay AID1224826 – NIAID, 2016
Test: 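Knock-downs that raise or lower Tnf reporter signal after endotoxin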 (primary screen). Cell system: RAW264.7 G9 macrophages from mouse bearing reporters for p65 (GFP) and the Tnf promoter (mCherry). Reagents: siRNA pool against mouse genes, 100 nM. Time to read-out: 16 h of LPS stimulation, after 2 days of siRNA transfection. Conditions: bacterial lipopolysaccharide (Salmonella minnesota R595), 10 ng/ml. Measured: 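Nuclear mCherry signal of the Tnf promoter reporter measured by imaging after background removal, scaled to each plate median and turned into robust z-scores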. Direction: Tnf reporter robust z-score: higher = stronger Tnf promoter reporter signal after LPS; Tnf reporter intensity: higher = stronger Tnf promoter reporter signal. Hit rule: 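Called active when robust z-score is at most -1.3, matching the median of the Tlr4 knock-down control, or over 3; control wells and wells with under 50 cells never active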. Meaning of the calls: active = Tnf reporter clearly lowered or raised; inactive = no clear change in Tnf reporter.
Shown is one part, drawn at random, of about 17,000 reagents. About 1,110 of all reagents (6.6%) count as active. 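Active means lowered or raised reporter signal; replicate intensities are raw and not normalised per plate.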

Tnf reporter robust z-score,fewer than 50 cells in well,"Tnf reporter intensity, replicate 1","Tnf reporter intensity, replicate 2",Outcome,target
0.64,enough cells in well,268,293,inactive,Uqcrc1
,fewer than 50 cells per well; well left out of calls,254,24.4,inactive,Hint3
-0.61,enough cells in well,134,136,inactive,Kyat1
,fewer than 50 cells per well; well left out of calls,54.6,73.7,inactive,Or51a8
-0.32,enough cells in well,138,90.7,inactive,Sbk1
-0.48,enough cells in well,128,107,inactive,Pigm
-0.13,enough cells in well,258,152,inactive,Oaz1
0.63,enough cells in well,248,213,inactive,Il36rn
3.19,enough cells in well,341,269,active,Dnajb12
-0.12,enough cells in well,289,202,inactive,Sall3
-0.79,enough cells in well,123,121,inactive,Fsd1
1.43,enough cells in well,226,285,inactive,Arl11
-1.94,enough cells in well,80.7,32.8,active,Phf24
,fewer than 50 cells per well; well left out of calls,68.3,57.3,inactive,Tbrg1
0.07,enough cells in well,244,125,inactive,Pim1
-0.53,enough cells in well,156,70.3,inactive,Dppa4
-0.3,enough cells in well,290,177,inactive,Rab3d
0.21,enough cells in well,177,185,inactive,Anln
1.18,enough cells in well,227,241,inactive,Arl6ip6
-0.16,enough cells in well,224,125,inactive,Tbx5
-0.43,enough cells in well,163,114,inactive,5031404N07
,fewer than 50 cells per well; well left out of calls,70.2,54.3,inactive,Tead4
,fewer than 50 cells per well; well left out of calls,115,103,inactive,Tmprss11b
-1.6,enough cells in well,65.5,53.5,active,Pmaip1
,fewer than 50 cells per well; well left out of calls,139,89.3,inactive,Or6c206
0.67,enough cells in well,298,273,inactive,Msc
0.11,enough cells in well,239,163,inactive,Itgam
-0.27,enough cells in well,211,187,inactive,Disc1
0.58,enough cells in well,245,260,inactive,Icam2
1.01,enough cells in well,284,102,inactive,Kcnk10
-1.16,enough cells in well,55.7,67.8,inactive,Sema4f
0.59,enough cells in well,271,192,inactive,Kera
0.85,enough cells in well,306,155,inactive,Creg2
-0.43,enough cells in well,255,182,inactive,Rbp4
-1.07,enough cells in well,187,129,inactive,Gcm2
0.13,enough cells in well,202,152,inactive,Or5t5
0.16,enough cells in well,276,204,inactive,Fbln1
-0.16,enough cells in well,203,187,inactive,Myl6b
1.25,enough cells in well,380,118,inactive,Mrgpre
,fewer than 50 cells per well; well left out of calls,175,107,inactive,Cenpm
0.48,enough cells in well,379,178,inactive,Mtm1
2.06,enough cells in well,174,169,inactive,Slc13a3
-0.77,enough cells in well,88.2,74.3,inactive,Tdrd3
-0.33,enough cells in well,212,177,inactive,Dtnbp1
0.61,enough cells in well,158,151,inactive,Rdh10
1.27,enough cells in well,288,127,inactive,1700067P10Rik
0.05,enough cells in well,209,122,inactive,Scara5
-0.68,enough cells in well,203,102,inactive,Kitl
,fewer than 50 cells per well; well left out of calls,235,98.3,inactive,4930449I24Rik
,fewer than 50 cells per well; well left out of calls,138,39.7,inactive,Rnf43
-1.32,enough cells in well,119,122,active,Pinx1
-0.58,enough cells in well,72.1,104,inactive,Or51i1
,fewer than 50 cells per well; well left out of calls,186,130,inactive,4933404G15Rik
-0.62,enough cells in well,179,157,inactive,Gphn
-0.97,enough cells in well,112,107,inactive,Brat1
2.08,enough cells in well,172,260,inactive,Mepce
0.02,enough cells in well,378,162,inactive,Rab9
-0.55,enough cells in well,169,187,inactive,Gpr180

Called active, among the entries above:
Tnf reporter robust z-score,fewer than 50 cells in well,"Tnf reporter intensity, replicate 1","Tnf reporter intensity, replicate 2",Outcome,target
3.19,enough cells in well,341,269,active,Dnajb12
-1.94,enough cells in well,80.7,32.8,active,Phf24
-1.6,enough cells in well,65.5,53.5,active,Pmaip1
-1.32,enough cells in well,119,122,active,Pinx1
